Data published in the supplement of paper PMC12067093, “Discovery and optimisation of a covalent ligand for TRIM25 and its application to targeted protein ubiquitination” (Chemical Science, 2025).
This is one part of the list.

Compound: CC1Cc2ccccc2N1C(=O)C1CCCN(C1)C(=O)CCl (mixture of isomers) [TRIM25 ligand 11 (diastereomer mixture)]
Assay: probe-labelled cysteine peptide fold change vs DMSO (competition) (log2 fold change); higher = less target engagement (more negative = stronger competition)
Details: THP-1, incubation time: 4 h
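Also: competitive chemoproteomic profiling in live THP-1 cells with an iodoacetamide desthiobiotin (IA-DTB) probe, comparing probe-labelled peptide intensities in compound-treated cells against DMSO-treated controls.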

Row | Target | probe-labelled cysteine peptide fold change (10 µM) | probe-labelled cysteine peptide fold change (50 µM)
1 | PPIL1_Q9Y3C6_133_VCQGIGMVNR (UniProt Q9Y3C6) | 0.108 | -0.00608
2 | PREB_Q9HCU5_378_CQLHLLPSR (UniProt Q9HCU5) | 0.0563 | 0.163
3 | PPP1R8_Q12972_67_NPDLCDFTIDHQSCSR (UniProt Q12972) | 0.282 | -0.231
4 | PPP2R2A_P63151_398_VCASGK (UniProt P63151) | 0.127 | 0.287
5 | PRDX4_Q13162_51_EEECHFYAGGQVYPGEASR (UniProt Q13162) | 0.0376 | 0.0703
6 | PRDX3_P30048_60_LFSTSSSCHAPAVTQHAPYFK (UniProt P30048) | 0.13 | -0.335
7 | PREPL_Q4J6C6_227_CHDVYR (UniProt Q4J6C6) | 0.00247 | 0.0105
8 | PPP1R3D_O95685_279_DYSLTCR (UniProt O95685) | 0.48 | 0.213
9 | PPP6R1_Q9UPN7_455_ILTSWEENDRVQCAGGPR (UniProt Q9UPN7) | 0.0365 | -0.032
10 | PPP1CB_P62140_244_FLNRHDLDLICR (UniProt P62140) | -0.0305 | -0.0389
11 | PPP1R8_Q12972_16_AAAANSGSSLPLFDCPTWAGKPPPGLHLDVVKGDK (UniProt Q12972) | -0.117 | -0.26
12 | PPP4C_P60510_52_VDSPVTVCGDIHGQFYDLK (UniProt P60510) | 0.101 | -0.0221
13 | PPIG_Q13427_549_ECDITK (UniProt Q13427) | 0.0567 | -0.0717
14 | PPP1R3G_B7ZBB8_225_VQCSTASGAEVK (UniProt B7ZBB8) | -0.0159 | -0.0988
15 | PPP6R1_Q9UPN7_437_HLLQQCR (UniProt Q9UPN7) | -0.00543 | -0.0738
16 | PPP5C_P53041_404_RGVSCQFGPDVTK (UniProt P53041) | 0.046 | 0.0884
17 | PREPL_Q4J6C6_538_LNGLADLEACIK (UniProt Q4J6C6) | 0.00302 | 0.132
18 | PPP4R1_Q8TF05_174_VCPVLIELTAPDSNDDVK (UniProt Q8TF05) | 0.0227 | 0.111
19 | PREB_Q9HCU5_280_QPPPCYLTAWDGSNFLPLR (UniProt Q9HCU5) | 0.121 | 0.0577
20 | PPM1B_O75688_272_LEVSDDLENVCNWVVDTCLHK (UniProt O75688) | -0.122 | 0.00825

Row | Target | probe-labelled cysteine peptide fold change (10 µM) | probe-labelled cysteine peptide fold change (50 µM)
21 | PREP_P48147_343_DVLEWIACVR (UniProt P48147) | 0.0404 | 0.295
22 | PPP6R3_Q5H9R7_82_YKYPNISCELLTSDVSQMNDR (UniProt Q5H9R7) | 0.202 | -0.216
23 | PPP6R3_Q5H9R7_844_CAAPRPPSSSPEQR (UniProt Q5H9R7) | 0.00367 | -0.0138
24 | PPP3R1_P63098_154_ISFEEFCAVVGGLDIHK (UniProt P63098) | -0.00643 | 0.0868
25 | PPOX_P50336_410_EMPSHCLVHLHK (UniProt P50336) | -0.0029 | -0.0412
26 | PRDX4_Q13162_51_TREEECHFYAGGQVYPGEASR (UniProt Q13162) | -0.0678 | -0.034
27 | PPT1_P50897_45+46_ALQHLDPPAPLPLVIWHGMGDSCCNPLSMGAIK (UniProt P50897) | -0.179 | -0.191
28 | PPP2R1A_P30153_174_NLCSDDTPMVR (UniProt P30153) | -0.1 | -0.168
29 | PPP1R3D_O95685_291_GECEESWIHFI (UniProt O95685) | 0.0885 | -0.0109
30 | PPP2R1A_P30153_329_ENVIMSQILPCIK (UniProt P30153) | 0.0298 | -0.00632
31 | PPP5C_P53041_382_NRQPPDSGPMCDLLWSDPQPQNGR (UniProt P53041) | 0.0714 | -0.22
32 | PPP1CB_P62140_201_IMRPTDVPDTGLLCDLLWSDPDK (UniProt P62140) | 0.0115 | 0.114
33 | PPP2R2A_P63151_398_KVCASGK (UniProt P63151) | -0.0547 | -0.0725
34 | PPM1G_O15355_13_CSGDGVGAPR (UniProt O15355) | -0.113 | -0.118
35 | PPWD1_Q96BP3_287_AYPTSVCFSPDGK (UniProt Q96BP3) | 0.141 | 0.213
36 | PREPL_Q4J6C6_184_IRTEDSEASTCVIIK (UniProt Q4J6C6) | 0.00491 | 0.152
37 | PPIL4_Q8WUA2_294_EEDCEK (UniProt Q8WUA2) | 0.0382 | 0.00763
38 | PRDX1_Q06830_71_LNCQVIGASVDSHFCHLAWVNTPK (UniProt Q06830) | 0.0911 | -0.104
39 | PPIP5K2_O43314_615_SANMNGLLDSDSDSLSSCQQR (UniProt O43314) | -0.00763 | 0.0215

Some values from the results shown.
PPP6R1_Q9UPN7_437_HLLQQCR (UniProt Q9UPN7) – probe-labelled cysteine peptide fold change (10 µM): -0.00543
PPP1R8_Q12972_67_NPDLCDFTIDHQSCSR (UniProt Q12972) – probe-labelled cysteine peptide fold change (10 µM): 0.282
